Reference: PubChem BioAssay AID1347076 (National Center for Advancing Translational Sciences (NCATS), 2019)
Several values for one entry are separate records, joined by “and”; a condition that tells them apart may be missing. Equal entries are not always repeated. Among all 400,000 compounds or so, about 13,000 (3.2%) were called active. This list was built around the results that the source calls inconclusive (neither active nor inactive); the mix of calls is not that of the screen. Calls come from the whole dose curve; as a rule, active = well fitted cell-killing curve with a large enough effect; inconclusive = small, poorly fitted or top-dose-only effect, or effect the other way; inactive = flat fitted curve, though single readings scatter. Potencies beside an inconclusive call are fits to weak or partial responses and may not hold up.

Assay: qHTS assay for MDR1-selective chemotherapeutics: Primary screen using the drug-selected MDR subline cells KB-V1; note: nearly all actives have a fitted effect of over 60% in size
Conditions: KB-V1 MDR cells viability, CellTiter-Glo, 72 h; activity change, negative = cytotoxicity: at 46.1 µM (top of the series)
Outline: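 Luminescent ATP read-out (CellTiter-Glo, 10 min) measures survival of drug-selected KB-V1 MDR cells after 72 h, 37 degrees C compound exposure. Medium: phenol-red-free DMEM, 10% FBS. Values from fitted concentration-response curves.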
% is set by controls: 0 for no effect and ±100 for the full control effect; potency is the fitted concentration of half-maximal effect.

SMILES	Potency	activity change, negative = cytotoxicity
C#CCn1c(=NC(=O)c2ccc(S(=O)(=O)N3CCc4ccccc4C3)cc2)sc2cc(S(N)(=O)=O)ccc21	inconclusive: 2.91 µM [rising, partial curve, poor fit]	–
COc1ccc(N2CCN(C(=O)c3ccc(N(C)S(=O)(=O)c4ccc(OC)cc4)cc3)CC2)cc1	inconclusive: 13 µM [cytotoxic, partial curve]	–
CC(C)c1ccc(CCNC(=O)CSC(=S)N2CCCC2)cc1	inconclusive: 29.1 µM [rising, single point]	–
CC1CN(S(=O)(=O)c2cc(C(=O)N(CCc3ccccc3)Cc3ccccc3)ccc2Cl)CC(C)O1 (configuration not stated)	inconclusive: 4.11 µM [cytotoxic, full curve]	–
Cc1ccc(CN2C(=O)c3ccccc3NC2c2ccccn2)cc1 (configuration not stated)	inconclusive: 20.6 µM [cytotoxic, single point]	–
COc1ccccc1N1CCN(c2ncnc3c2oc2ccccc23)CC1	active: 6.51 µM	–
CC(=O)C1=CCC(c2ccc(C)cc2)N(S(=O)(=O)c2ccc(C)cc2)C1 (configuration not stated)	inconclusive: 18.4 µM [cytotoxic, single point]	–
CC1CCCCC1NC(=O)c1cc2c(=O)n3ccccc3nc2n1C (configuration not stated)	inactive	–
Cc1[nH]n(C(N)=S)c(=O)c1N=Nc1ccccc1C(F)(F)F	inactive	–
CCOC(=O)c1c(-c2ccc(F)cc2)csc1NC(=O)c1c(-c2ccccc2)noc1C	inconclusive: 14.6 µM [cytotoxic, single point]	–
O=C(O)CCN=CC1=C(O)CC(c2ccccc2)CC1=O (configuration not stated)	inactive	–
CCOc1ccc(/C=C2/SC(=S)N(CCC(=O)Nc3ccc(C(=O)O)cc3)C2=O)cc1	inconclusive: 29.1 µM [rising, single point]	–
Cc1ccc(C(=O)NCCN(C)C)cc1C	inactive	–
Cc1nc2ccc(NS(=O)(=O)c3ccc(F)c(F)c3)cc2s1	inactive	–
COc1cc(/C=N/N=C2/NC(=O)C(c3ccccc3)S2)ccc1O (configuration not stated)	inactive	–
Cc1ccn2cc(CNS(=O)(=O)c3ccc4ccccc4c3)nc2c1	inconclusive: 25.9 µM [cytotoxic, single point]	–
CC(=O)Cc1nsc(Nc2ccc3c(c2)OCCO3)n1	inconclusive: 32.6 µM [cytotoxic, single point]	–
CN(CC(=O)Nc1sc2c(c1C#N)CCCCC2)Cc1nc2ccccc2c(=O)[nH]1	active: 16.4 µM	–
Cc1coc2cc3oc(=O)c(CCC(=O)NCc4ccc(Cl)cc4)c(C)c3cc12	inconclusive: 11.6 µM [cytotoxic, partial curve]	–
CCC(c1nnnn1C(C)(C)C)N(Cc1ccco1)Cc1cc2cccc(C)c2[nH]c1=O (configuration not stated)	active: 23.1 µM	–
O=C(NN=Cc1ccc(F)cc1)c1cccc(S(=O)(=O)N2CCCC2)c1	inconclusive: 29.1 µM [cytotoxic, single point]	–
Cc1ccc(C2=N/C(=C\N3CCCCC3)C(=O)O2)cc1	inconclusive: 18.4 µM [cytotoxic, single point]	–
CN(C(=O)c1cc(S(=O)(=O)N2CCCCC2)c[nH]1)C1CCCCC1	inactive	–
COC(=O)c1c(C)[nH]c(C(=O)/C=C/c2ccccc2F)c1C	inconclusive: 7.31 µM [cytotoxic, partial curve]	–

Pulled by structure from above, 2 records:
SMILES	Potency	activity change, negative = cytotoxicity
Cc1[nH]n(C(N)=S)c(=O)c1N=Nc1ccccc1C(F)(F)F	inactive	–
COC(=O)c1c(C)[nH]c(C(=O)/C=C/c2ccccc2F)c1C	inconclusive: 7.31 µM [cytotoxic, partial curve]	–

The results go on:

SMILES	Potency	activity change, negative = cytotoxicity
COc1ccccc1NC(=S)N(Cc1ccccn1)Cc1ccccc1Cl	inactive	–
CCOC(=O)CSc1nc2c(sc(=S)n2-c2ccccc2)c(=O)[nH]1	inactive	–
CCC(=O)Oc1ccc2c(=O)c(-c3ccc4ccccc4n3)c(CC)oc2c1C	active: 13 µM	–
O=C(O)c1c(NC(=O)N(CCO)Cc2ccccc2)sc2c1CCCC2	inactive	–
COc1ccc(CCNC(=O)COC(=O)/C=C/c2cccs2)cc1OC	inactive	–
C=CCCC(=O)Nc1nc(C)c(-c2csc(Nc3ccccc3OC)n2)s1	inconclusive: 20.6 µM [cytotoxic, partial curve, poor fit]	–
COc1ccc(CCNC(=O)c2ccc(OCC(=O)N3CCOCC3)c(OC)c2)cc1	inactive	–
Cn1c(Cn2nnc3ccccc32)nnc1SCC(=O)N1c2ccccc2Sc2ccccc21	active: 16.4 µM	–
Cc1ccc(S(=O)(=O)N2CCCN(C)c3nc4ccccc4nc32)cc1	active: 16.4 µM	–
O=C(O)c1ccc(NC(=O)c2cn(-c3ccccc3)nc2-c2ccc(Cl)cc2)cc1	inconclusive: 23.1 µM [cytotoxic, single point]	–
COc1ccc(S(=O)(=O)Nc2ccc(C)cc2)cc1N(C)S(=O)(=O)c1ccc(Cl)cc1	inconclusive: 18.4 µM [cytotoxic, single point]	–
Cc1ccc(NC(=O)Cc2ccc(-n3c(C)nc4cccnc43)cc2)cc1C	inactive	–
Cc1cccc(-c2noc(-c3ccc4c(c3)OCO4)n2)c1	inconclusive: 29.1 µM [cytotoxic, single point]	–
CCOC(=O)C1CCN(C(=O)C(C)N(c2ccc(Oc3ccccc3)cc2)S(C)(=O)=O)CC1 (configuration not stated)	inactive	–
CN1CCN(Cc2ccc(Sc3ccc(Cl)cc3)c([N+](=O)[O-])c2)CC1	inconclusive: 29.1 µM [cytotoxic, single point]	–
CCCCOc1ccc(S(=O)(=O)Nc2ccc(-c3ccc(N4CCCCCC4)nn3)cc2)cc1	–	inconclusive: -21%
Fc1ccccc1N=C1NN=C(c2ccccc2)CS1	inconclusive: 23.1 µM [cytotoxic, single point]	–
Cc1c(Cl)cccc1N1C(=O)CC(NNC(=O)c2cccs2)C1=O (configuration not stated)	inconclusive: 0.0651 µM [rising, full curve]	–
CN(Cc1ccccc1)S(=O)(=O)c1ccc2c(c1)NC(=O)CC(=O)N2	inconclusive: 8.2 µM [rising, partial curve, poor fit]	–
COc1cc(/C=C/C(=O)O)cc(S(=O)(=O)N2CCc3ccccc32)c1OC	inconclusive: 11.6 µM [rising, partial curve]	–
COC(=O)c1cccc(-n2c(CCC(=O)O)ccc2-c2ccc(OC)cc2)c1	inconclusive: 29.1 µM [cytotoxic, single point]	–
CCN(C(=O)COC(=O)CNC(=O)c1ccc(C)cc1)c1c(N)n(Cc2ccccc2)c(=O)[nH]c1=O	inactive	–
O=C(CSc1nnc(Cc2cc(=O)[nH]c(=O)[nH]2)n1-c1ccc(F)cc1)N1CCCCC1	inconclusive: 29.1 µM [rising, single point]	–
CCOC(=O)c1cc(-c2ccccc2)n(CCCC(=O)Nc2ccc(C(C)C)cc2)c1C	inconclusive: 18.4 µM [cytotoxic, partial curve]	–

Rewritten as comma-separated lines: entries from further up
SMILES,Potency,"activity change, negative = cytotoxicity"
Cn1c(Cn2nnc3ccccc32)nnc1SCC(=O)N1c2ccccc2Sc2ccccc21,active: 16.4 µM,–
Cc1ccc(S(=O)(=O)N2CCCN(C)c3nc4ccccc4nc32)cc1,active: 16.4 µM,–
O=C(O)c1ccc(NC(=O)c2cn(-c3ccccc3)nc2-c2ccc(Cl)cc2)cc1,"inconclusive: 23.1 µM [cytotoxic, single point]",–
COc1ccc(S(=O)(=O)Nc2ccc(C)cc2)cc1N(C)S(=O)(=O)c1ccc(Cl)cc1,"inconclusive: 18.4 µM [cytotoxic, single point]",–

More structures:

SMILES	Potency	activity change, negative = cytotoxicity
Fc1ccc(Oc2ccnc(Cl)n2)c(Cl)c1	inactive	–
CCCNC(=S)Nc1cccc(C(F)(F)F)c1	inactive	–
O=[N+]([O-])c1ccc(N2CCN(c3ccccn3)CC2)c(Cl)c1	inconclusive: 20.6 µM [cytotoxic, partial curve]	–
O=C(COc1ccc2oc3c(c2c1)CCCC3)Nc1ccc(Br)cc1	inconclusive: 29.1 µM [rising, single point]	–
Cc1cccc2c1CCCC2=O	inactive	–
c1ccc(C2=NNC(=NCc3ccc4c(c3)OCO4)SC2)cc1	active: 23.1 µM	–
CC1CCN(c2ccc(-c3cccc(NC(=O)c4ccco4)c3)nn2)CC1	inactive	–
COc1ccc(CCn2c(=S)[nH]c3ccc(N4CCOCC4)cc3c2=O)cc1OC	inconclusive: 1.64 µM [cytotoxic, full curve]	–
COc1ccc(/C=C/C(=O)NCC2COc3ccccc3O2)cc1OC (configuration not stated)	inactive	–
CN(C)C(=O)N1CCN(c2nc(-c3ccccc3)cs2)CC1	inconclusive: 18.4 µM [cytotoxic, single point]	–
CCOc1ccc(C(=O)C2CCN(C(=O)c3ccc([N+](=O)[O-])cc3)CC2)cc1	inconclusive: 7.31 µM [cytotoxic, partial curve]	–
COc1cc(-c2nc(S(=O)(=O)c3ccc(Cl)cc3)c(N(C)C)o2)cc(OC)c1OC	inconclusive: 2.59 µM [cytotoxic, full curve]	–
COCCn1cnc2c1c(=O)n(Cc1c(F)cccc1Cl)c(=O)n2Cc1ccccc1	inconclusive: 2.91 µM [cytotoxic, partial curve]	–
COCCNC(=O)NC(=O)CN1C(=O)NC(Cc2c[nH]c3ccccc23)C1=O (configuration not stated)	inactive	–
COc1ccccc1-c1ccc2c(c1)C(C)(Cc1cc(Cl)ccc1C(F)(F)F)C(=O)N2 (configuration not stated)	active: 20.6 µM	–
O=C(Nc1c[nH]c(=O)[nH]c1=O)c1ccccc1Br	inconclusive: 29.1 µM [cytotoxic, single point]	–
COc1ccc(/C=C/C(=O)Nc2ccccc2C(F)(F)F)cc1OC	inconclusive: 5.17 µM [rising, full curve]	–
Cc1cc2c(c(SCC(N)=O)n1)C(=O)OC2	inactive	–
COc1ccccc1N(CC(=O)NCCSCc1ccccc1)S(=O)(=O)c1ccc(C)cc1	inconclusive: 9.2 µM [cytotoxic, partial curve] and inconclusive: 18.4 µM [cytotoxic, single point]	–
Cc1ccccc1NC(=O)CSc1nc(-c2ccccc2C)nc2cc(=O)[nH]n12	inactive	–
O=C(COC(=O)c1ccc2c(c1)S(=O)(=O)c1ccccc1C2=O)NC1CC1	inconclusive: 16.4 µM [rising, single point]	–
COc1ccc(OCc2cc(C(=O)N(C)CC3CCCCO3)no2)c(Cl)c1 (configuration not stated)	inconclusive: 14.6 µM [cytotoxic, partial curve]	–
O=C1CN(C(=O)Cc2ccc(F)cc2)C(c2ccccc2)c2cc(Cl)ccc2N1 (configuration not stated)	inactive	–
Cc1cccc(C)c1NC(=O)C1c2cccc[n+]2CC(=O)N1Cc1cccs1 (configuration not stated)	inconclusive: 29.1 µM [rising, single point]	–
